In this test the target is hVEGFR (human) (UniProt P17948). Nature of the test: ELISA. Background: ELISA stands for enzyme-linked immunosorbent assay.

Protein sequences, listed by entry. Tags and fused reporters are not part of them. Lines headed by an entry give the natural chain unless they say otherwise; changes in a name come on top.
UniProt P17948: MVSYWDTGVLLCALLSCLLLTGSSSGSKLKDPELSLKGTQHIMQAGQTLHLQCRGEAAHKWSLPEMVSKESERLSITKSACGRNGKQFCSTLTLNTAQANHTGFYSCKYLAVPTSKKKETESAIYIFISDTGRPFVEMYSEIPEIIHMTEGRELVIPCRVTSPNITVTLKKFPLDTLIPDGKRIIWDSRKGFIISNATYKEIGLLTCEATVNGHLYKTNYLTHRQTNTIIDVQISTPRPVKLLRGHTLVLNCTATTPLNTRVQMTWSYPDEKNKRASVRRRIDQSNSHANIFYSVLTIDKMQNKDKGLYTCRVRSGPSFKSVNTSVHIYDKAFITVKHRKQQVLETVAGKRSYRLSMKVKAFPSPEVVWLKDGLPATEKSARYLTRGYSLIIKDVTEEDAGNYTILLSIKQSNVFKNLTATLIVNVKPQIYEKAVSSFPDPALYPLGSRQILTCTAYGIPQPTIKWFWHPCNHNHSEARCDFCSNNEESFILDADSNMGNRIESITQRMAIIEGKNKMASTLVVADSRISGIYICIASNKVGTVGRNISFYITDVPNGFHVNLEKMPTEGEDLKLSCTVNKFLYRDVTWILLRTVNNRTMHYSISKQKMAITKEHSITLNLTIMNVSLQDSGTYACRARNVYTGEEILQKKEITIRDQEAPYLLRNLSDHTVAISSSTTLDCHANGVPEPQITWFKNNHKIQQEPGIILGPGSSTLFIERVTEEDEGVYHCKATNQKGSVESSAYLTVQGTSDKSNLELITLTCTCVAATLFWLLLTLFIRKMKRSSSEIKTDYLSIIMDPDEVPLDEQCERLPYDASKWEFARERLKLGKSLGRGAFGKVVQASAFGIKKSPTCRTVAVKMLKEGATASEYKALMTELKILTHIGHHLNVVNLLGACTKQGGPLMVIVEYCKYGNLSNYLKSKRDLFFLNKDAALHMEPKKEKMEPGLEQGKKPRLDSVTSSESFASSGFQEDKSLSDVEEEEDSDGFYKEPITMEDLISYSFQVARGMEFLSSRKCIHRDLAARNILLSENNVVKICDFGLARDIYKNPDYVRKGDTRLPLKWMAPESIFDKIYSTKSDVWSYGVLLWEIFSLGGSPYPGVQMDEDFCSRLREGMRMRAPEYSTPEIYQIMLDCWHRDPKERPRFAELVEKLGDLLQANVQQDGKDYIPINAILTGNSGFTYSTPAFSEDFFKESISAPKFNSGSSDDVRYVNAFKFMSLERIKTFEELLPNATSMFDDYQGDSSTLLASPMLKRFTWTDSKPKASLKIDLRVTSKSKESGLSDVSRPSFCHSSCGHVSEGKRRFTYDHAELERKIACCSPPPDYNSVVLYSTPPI

These are yes or no findings as the source states them, for the method shown. A result given as binding can be weak or reduced; the word gives no strength. Where a sequence is shown, tags or fusion partners need not be part of it.

Among the data in US20100322930A1 are binding values, retold here.

B1: VEGFR-binding Fn3-RSA (CD33 signal sequence-VEGFR-binding Fn3-RSA-His tag, pRS5a) (designed binder)
chain: GEVVAATPTSLLISWRHPHFPTRYYRITYGETGGNSPVQEFTVPLQPPTATISGLKPGVDYTITVYAVTDGRNGRLLSIPISINYRTEAHKSEIAHRFKDLGEQHFKGLVLIAFSQYLQKCPYEEHIKLVQEVTDFAKTCVADENAENCDKSIHTLFGDKLCAIPKLRDNYGELADCCAKQEPERNECFLQHKDDNPNLPPFQRPEAEAMCTSFQENPTSFLGHYLHEVARRHPYFYAPELLYYAEKYNEVLTQCCTESDKAACLTPKLDAVKEKALVAAVRQRMKCSSMQRFGERAFKAWAVARMSQRFPNAEFAEITKLATDVTKINKECCHGDLLECADDRAELAKYMCENQATISSKLQACCDKPVLQKSQCLAEIEHDNIPADLPSIAADFVEDKEVCKNYAEAKDVFLGTFLYEYSRRHPDYSVSLLLRLAKKYEATLEKCCAEGDPPACYGTVLAEFQPLVEEPKNLVKTNCELYEKLGEYGFQNAVLVRYTQKAPQVSTPTLVEAARNLGRVGTKCCTLPEAQRLPCVEDYLSAILNRLCVLHEKTPVSEKVTKCCSGSLVERRPCFSALTVDETYVPKEFKAETFTFHSDICTLPDKEKQIKKQTALAELVKHKPKATEDQLKTVMGDFAQFVDKCCKAADKDNCFATEGPNLVARSKEALAHHHHHH
Take B1: the binding entry is listed as “binds”.
